# Values joined by “and” are separate entries in the source; they are usually repeats but may differ in a detail not shown here. Identical values can stand only once. Inconclusive results, whose numbers are uncertain, are shown with a selection of clear calls. For some of these results: A potency beside an inconclusive call is a rough fit, not a confirmed value. Active and inactive are the calls of the source. Unless noted, calls come from the whole dose curve; as a rule, active = well fitted curve in the direction sought with a large enough effect; inconclusive = small, poorly fitted or top-dose-only effect, or another doubt; inactive = no such curve, though single readings can be large; an effect the other way counts as inactive or inconclusive.
# The chains behind the UniProt entries cited, without tags or fusion partners.
# UniProt P07203, whole entry, looked up: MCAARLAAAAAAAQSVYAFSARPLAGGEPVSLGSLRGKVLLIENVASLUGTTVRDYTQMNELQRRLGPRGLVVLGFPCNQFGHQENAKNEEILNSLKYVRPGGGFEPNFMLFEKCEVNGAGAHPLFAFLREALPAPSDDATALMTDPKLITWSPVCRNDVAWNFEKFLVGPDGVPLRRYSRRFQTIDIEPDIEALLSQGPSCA
# UniProt P36969, whole entry, looked up: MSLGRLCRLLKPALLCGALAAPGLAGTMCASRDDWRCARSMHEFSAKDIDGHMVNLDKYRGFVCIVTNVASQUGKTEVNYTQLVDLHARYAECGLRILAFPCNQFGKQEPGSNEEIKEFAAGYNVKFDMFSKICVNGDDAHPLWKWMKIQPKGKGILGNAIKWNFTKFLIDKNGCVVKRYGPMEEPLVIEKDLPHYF
# Columns and labels:
# [1] = target: Rap guanine nucleotide exchange factor 3 (Homo sapiens) (UniProt O95398); test: Counterscreen qHTS for agonist of cAMP-regulated guanine nucleotide exchange factor 3 (EPAC1) (AID 1645889); conditions: EPAC1 Rap1B-BODIPY-GDP exchange, fluorescence; activation: at 154 µM (top of the series) unless noted; note: nearly all actives have a fitted effect of over 40% in size; note: potency is the fitted concentration of half-maximal effect; for activation: % of control where 0% means no effect
# How it was run: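 Rap1B-BODIPY-GDP 250 nM + GDP 50 uM; cpds 7-pt, final 9.74 nM–152 uM (activator mode) or from 7.32 nM upwards (inhibitor mode); RT; FI 480/540 nm at 5 and 30 min, then ± cAMP, reread.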
# [2] = target: Lysosomal alpha-glucosidase (Homo sapiens) (UniProt P10253); test: Confirmation of Inhibitors and Activators of Purified Human alpha-Glucosidase (AID 2115; active = well fitted curve in either direction with a large enough effect; inconclusive = small, poorly fitted or top-dose-only effect)
# How it was run: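 Fluorogenic 4-MU-substrate hydrolysis (400 uM substrate, 4 nM human enzyme) over 20 min at room temperature, pH 5.0 citrate buffer plus 0.005% Tween-20; NaOH/glycine stop, then ex 365/em 440 nm read. Titration up to 77 uM; Hill-equation AC50, normalized to no-enzyme and full-activity controls.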
# [3] = target: Glutathione peroxidase 1 (Homo sapiens) (UniProt P07203); test: Primary qHTS Assay for Inhibitors of Recombinant Selenoprotein Glutathione Peroxidase 1 (GPX1) (AID 1845191); note: potency is the fitted concentration of half-maximal effect; nearly all actives have a fitted effect of over 65% in size
# How it was run: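 NADPH consumption tracked by fluorescence at 340/450 nm between t=0 and t=15 min, room temperature. Final mix: 10 nM GPX1, 100 nM glutathione reductase, 1 mM GSH, 0.5 mM NADPH, 0.5 mM cumene hydroperoxide, 0.01% BSA; 30 min compound–enzyme preincubation.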
# [4] = target: Phospholipid hydroperoxide glutathione peroxidase GPX4 (Homo sapiens) (UniProt P36969); test: Primary qHTS Assay for Inhibitors of Recombinant Selenoprotein Glutathione Peroxidase 4 (GPX4) (AID 1845192); note: potency is the fitted concentration of half-maximal effect; nearly all actives have a fitted effect of over 65% in size
# How it was run: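 NADPH consumption followed by fluorescence at 340/450 nm, t=0 and after 15 min at room temperature. Reaction started with cumene hydroperoxide (0.5 mM final) after 30 min compound–GPX4 preincubation; final 200 nM GPX4, 100 nM GR, 1 mM GSH, 0.5 mM NADPH.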
# [5] = qHTS profiling for inhibitors of Plasmodium falciparum proliferation (AID 504749); note: nearly all actives have a fitted effect of over 60% in size; note: potency is the fitted concentration of half-maximal effect;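 for activity, negative = inhibition: 0% = DMSO vehicle and full inhibition = artemisinin control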; conditions: P. falciparum in erythrocytes, SYBR Green DNA, 72 h; Potency: parasite line B unless noted; series mostly up to 28.7 µM
# How it was run: (§1)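 SYBR Green fluorescence of parasite DNA, read after lysis and overnight dark incubation, measured growth over 72 h in erythrocyte culture at 0.3% parasitemia and 2.5% hematocrit. Data normalised to DMSO and 0.29 uM artemisinin, with plate-drift correction.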
# ATS95 = test: as above; conditions: P. falciparum in erythrocytes, SYBR Green DNA, 72 h; series mostly up to 28.7 µM
# How it was run: as §1
# CP185 = test: as above; conditions: P. falciparum in erythrocytes, SYBR Green DNA, 72 h; series mostly up to 28.7 µM
# How it was run: as §1
# CP192 = test: as above; conditions: P. falciparum in erythrocytes, SYBR Green DNA, 72 h; activity, negative = inhibition: at 28.7 µM (top of the series)
# How it was run: as §1
# CP237 = test: as above; conditions: P. falciparum in erythrocytes, SYBR Green DNA, 72 h; series mostly up to 28.7 µM
# How it was run: as §1
# CP268 = test: as above; conditions: P. falciparum in erythrocytes, SYBR Green DNA, 72 h; series mostly up to 28.7 µM
# How it was run: as §1
# GB4 = test: as above; conditions: P. falciparum in erythrocytes, SYBR Green DNA, 72 h; series mostly up to 28.7 µM
# How it was run: as §1
# ICS = test: as above; conditions: P. falciparum in erythrocytes, SYBR Green DNA, 72 h; series mostly up to 28.7 µM
# How it was run: as §1
# P93_24 = test: as above; conditions: P. falciparum in erythrocytes, SYBR Green DNA, 72 h; series mostly up to 28.7 µM
# How it was run: as §1
structure (smiles),measurement,setting,value
COc1ccccc1CNC(=O)CSc1ccc(-c2cccs2)nn1,activation,[1],inconclusive: 47% [activator]
COc1ccccc1N1CC(C(=O)Nc2cc(C(F)(F)F)ccc2N2CCCC2)CC1=O (stereo not given),activation,[1],inactive: 9.96% [at 30.8 µM]
CCCCOc1ccccc1Cn1c(=O)oc2ccc(C)cc21,Potency,[1],"inconclusive: 20 µM [activator, partial curve, poor fit]"
Cc1c(NC(=O)/C=C/c2cn(-c3ccccc3)nc2-c2ccccc2)c(=O)n(-c2ccccc2)n1C,activation,[1],inconclusive: 50.6% [activator] [at 30.8 µM]
CCOC(=O)N1CCN(c2ccc(S(=O)(=O)N(Cc3ccccc3)Cc3ccccc3)cn2)CC1,Potency,[1],"inconclusive: 7.08 µM [activator, partial curve, poor fit]"
Cc1cc(NC(=O)CSc2sc3c(O)cc(=O)[nH]c3c2C#N)ccc1Br,Potency,[1],"inconclusive: 1 µM [activator, full curve, poor fit]"
CCCN(CCC)c1nc(-c2ccccn2)nc2ccccc12,activation,[1],inactive: 0.395% [at 30.8 µM]
COc1ccc(N(C)S(=O)(=O)c2cccc3nsnc23)cc1,Potency,[1],inactive
COc1ccccc1C(=O)NC(=O)Cn1nc(C)c([N+](=O)[O-])c1C,Potency,[1],"inconclusive: 0.0447 µM [activator, full curve, poor fit]"
COc1ccc(OC)c(/C=C2\N=C(c3ccccc3)OC2=O)c1,Potency,[1],"inconclusive: 63.1 µM [activator, partial curve]"
Cc1cc(C)c(S(=O)(=O)N2CCCCC2CCNC(=O)C(=O)NCC2CCCO2)c(C)c1 (stereo not given),Potency,[1],"inconclusive: 0.562 µM [activator, full curve, poor fit]"
Cc1ccc(-n2nc3c(=O)n(CCCC(=O)NCc4ccccc4F)nc(C)c3c2C)cc1,Potency,[1],inactive
C=CCn1c(SCC(=O)Nc2sccc2C(N)=O)nc2sc(CC)cc2c1=O,Potency,[1],"inconclusive: 7.94 µM [activator, partial curve, poor fit]"
COc1ccc(N2CCN(C(=O)COC(=O)c3ccc(C)o3)CC2)cc1,activation,[1],inconclusive: 62.3% [activator] [at 30.8 µM]
COc1ccccc1N1CCN(c2ncnc3onc(-c4ccc(F)cc4)c23)CC1,Potency,[1],inactive
Cc1ccc(C)c(-c2ccc(=O)n(Cc3cccc(Br)c3)n2)c1,activation,[1],inconclusive: 29.1% [activator]
CC1CCCN(C2(O)C(=O)Nc3ccc(Br)cc32)C1 (stereo not given),activation,[1],inconclusive: 23.6% [activator]
COC(=O)CNc1cc(S(=O)(=O)N2CCCCC2)ccc1Oc1cccc(C)c1,Potency,[1],"inconclusive: 7.08 µM [activator, partial curve, poor fit]"
CC(OC(=O)Cc1c[nH]c2ccccc12)C(=O)Nc1ccccc1F (stereo not given),Potency,[1],"inconclusive: 0.158 µM [activator, partial curve]"
Cc1cccc(C(=O)Nc2cccc(C(=O)N/N=C/c3cccc(C)n3)c2)c1,Potency,[1],"inconclusive: 22.4 µM [activator, single point]"
O=C(NCC(c1ccco1)N1CCN(c2ccccc2F)CC1)c1cccs1 (stereo not given),activation,[1],inconclusive: 40.1% [activator] [at 30.8 µM]
Cc1cccnc1NC(=O)c1ccc(S(=O)(=O)N2CC(C)OC(C)C2)cc1 (stereo not given),activation,[1],inconclusive: 16.4% [activator]
O=C1Cc2cc(S(=O)(=O)N3CCNCC3)ccc2N1,Potency,[2],inactive
same,activation,[1],inconclusive: 39.5% [activator] [at 30.8 µM]
CC(/C=C1\SC(=S)N(CC(=O)O)C1=O)=C\c1ccccc1,Potency,[1],inactive
same,Potency,[3],active: 7.28 µM and active: 3.21 µM
same,Potency,[4],active: 12.8 µM and active: 12.6 µM
same,Potency,[5],"inconclusive: 17.8 µM [inhibitor, single point]"
same,Potency,ATS95,inactive
same,Potency,CP185,inactive
same,Potency,CP192,inactive
same,Potency,CP237,inactive
same,Potency,CP268,inconclusive: 0.0013 µM [inhibitor]
same,Potency,GB4,inactive
same,Potency,ICS,inactive
same,Potency,P93_24,inactive
CCOc1ccc2oc(C(=O)N(C)CC(=O)Nc3ccc(OCC)c(OCC)c3)c(C)c2c1,Potency,[1],inactive
O=C(c1ccc(CSCc2ccccc2F)o1)N1CCN(c2ccc(N3CCOCC3)nn2)CC1,activation,[1],inactive: 14.5% [at 30.8 µM]
C#CC(c1ccccc1)(c1ccccc1)n1ccnc1,activation,[1],inconclusive: 26.1% [activator]
COc1ccc(NC(=O)c2ccc(NC3=NC4CS(=O)(=O)CC4S3)cc2)cc1 (stereo not given),activation,[1],inactive: 0.693% [at 30.8 µM]

# Reference: PubChem BioAssay (NCATS)
